Results are given in words; binding and its absence hold for the method and conditions named. In cells and extracts the contact can be indirect. For some assays here: Binding calls can cover weak binding; strength is not graded here.
Assays:
[1] = target: PCTAIRE1 (human (endogenous in 293T and U2OS)) (UniProt Q00536); assay: co-IP; endogenous PCTAIRE1 immunoprecipitated from 293T lysate (NP-40 lysis buffer) with anti-PCTAIRE1 antibody on protein A or G sepharose, overnight at 4°C, washed three times with PBS; western blots for PP2A-A, PP2A-C, SIRT1 and DBC1
[2] = target: HA-tagged PLK1 polo-box domain mutant (UniProt P53350); assay: co-IP; HA-tagged PLK1 (WT, KD or PBD mutant; 1 µg each) transiently transfected in U2OS; PLK1 pulled down by anti-HA antibody on protein A or G sepharose, overnight at 4°C; western blot for endogenous PCTAIRE1

The chains behind the UniProt entries cited, without tags or fusion partners. Where a name states a change or a piece, a line headed by the entry shows the natural chain unless it says otherwise.
UniProt Q00536: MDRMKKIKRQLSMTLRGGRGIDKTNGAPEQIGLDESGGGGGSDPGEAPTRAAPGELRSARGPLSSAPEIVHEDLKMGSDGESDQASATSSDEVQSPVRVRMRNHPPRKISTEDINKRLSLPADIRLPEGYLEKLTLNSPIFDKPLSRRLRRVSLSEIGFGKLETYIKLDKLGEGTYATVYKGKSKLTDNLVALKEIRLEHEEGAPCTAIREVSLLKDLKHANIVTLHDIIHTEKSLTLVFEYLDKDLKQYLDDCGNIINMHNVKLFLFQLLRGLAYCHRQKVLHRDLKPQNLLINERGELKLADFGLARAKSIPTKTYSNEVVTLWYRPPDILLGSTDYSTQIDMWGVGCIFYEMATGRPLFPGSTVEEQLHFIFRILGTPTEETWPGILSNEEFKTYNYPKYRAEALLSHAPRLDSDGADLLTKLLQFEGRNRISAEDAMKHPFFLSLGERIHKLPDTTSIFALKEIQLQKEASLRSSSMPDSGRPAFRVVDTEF
UniProt P53350: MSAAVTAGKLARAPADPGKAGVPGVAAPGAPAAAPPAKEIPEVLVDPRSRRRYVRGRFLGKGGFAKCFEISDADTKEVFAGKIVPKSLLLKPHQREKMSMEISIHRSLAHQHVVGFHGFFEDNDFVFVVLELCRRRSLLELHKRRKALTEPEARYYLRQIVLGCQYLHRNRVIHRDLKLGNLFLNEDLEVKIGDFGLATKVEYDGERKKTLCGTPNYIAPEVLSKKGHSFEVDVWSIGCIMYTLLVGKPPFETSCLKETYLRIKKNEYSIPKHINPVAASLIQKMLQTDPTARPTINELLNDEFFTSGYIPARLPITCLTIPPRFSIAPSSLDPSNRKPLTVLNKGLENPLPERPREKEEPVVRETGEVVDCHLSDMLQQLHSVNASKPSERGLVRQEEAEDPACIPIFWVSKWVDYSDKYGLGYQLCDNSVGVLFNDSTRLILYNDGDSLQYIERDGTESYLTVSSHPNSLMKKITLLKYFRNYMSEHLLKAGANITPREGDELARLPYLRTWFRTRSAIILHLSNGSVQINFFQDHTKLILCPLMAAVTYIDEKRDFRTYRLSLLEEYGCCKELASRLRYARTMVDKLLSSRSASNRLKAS
UniProt P67775: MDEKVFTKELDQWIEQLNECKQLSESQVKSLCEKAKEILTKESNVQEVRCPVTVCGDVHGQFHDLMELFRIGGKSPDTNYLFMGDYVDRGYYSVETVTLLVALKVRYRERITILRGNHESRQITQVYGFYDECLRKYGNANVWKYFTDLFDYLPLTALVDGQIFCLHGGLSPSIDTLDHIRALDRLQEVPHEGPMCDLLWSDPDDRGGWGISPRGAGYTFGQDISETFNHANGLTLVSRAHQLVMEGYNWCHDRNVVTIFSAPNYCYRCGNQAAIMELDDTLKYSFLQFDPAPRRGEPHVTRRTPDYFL

binding [1] | binding [2] | Substance
binds | – | PP2A C subunit (from UniProt P67775)
– | no binding | PCTAIRE1 (from UniProt Q00536 1-496)

— PMC8918779
